Assay results reported in the supplement of paper PMC12823440, “Inhibitors supercharge kinase turnover through native proteolytic circuits” (Nature, 2025).
Structures can show the parent of a compound that is named as a salt. This is one part of the list. The calls rarely recur for the same compound in another form.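 In K562 cells expressing nanoluciferase-fused kinases, luminescence was recorded at 4 h intervals between 2 and 18 h, normalized as percent of control with DMSO at 100% and a positive control at 0%. A significant (2 sigma) signal drop marks a time point as decreased. The authors' rule for a hit is not shown and takes in more than the number of time points.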

Protein sequences, listed by entry. Tags and fused reporters are not part of them. Lines headed by an entry give the natural chain unless they say otherwise; changes in a name come on top.
UniProt P50613: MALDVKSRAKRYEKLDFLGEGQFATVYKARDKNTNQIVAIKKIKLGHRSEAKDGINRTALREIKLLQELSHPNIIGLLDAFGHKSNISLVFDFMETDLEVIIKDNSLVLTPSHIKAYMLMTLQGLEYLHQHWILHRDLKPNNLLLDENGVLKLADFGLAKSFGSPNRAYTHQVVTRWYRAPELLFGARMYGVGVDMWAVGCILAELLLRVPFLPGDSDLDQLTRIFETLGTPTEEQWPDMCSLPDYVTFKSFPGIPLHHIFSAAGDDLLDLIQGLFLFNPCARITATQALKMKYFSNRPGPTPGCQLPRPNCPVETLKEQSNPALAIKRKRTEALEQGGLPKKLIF
UniProt P50750, whole entry: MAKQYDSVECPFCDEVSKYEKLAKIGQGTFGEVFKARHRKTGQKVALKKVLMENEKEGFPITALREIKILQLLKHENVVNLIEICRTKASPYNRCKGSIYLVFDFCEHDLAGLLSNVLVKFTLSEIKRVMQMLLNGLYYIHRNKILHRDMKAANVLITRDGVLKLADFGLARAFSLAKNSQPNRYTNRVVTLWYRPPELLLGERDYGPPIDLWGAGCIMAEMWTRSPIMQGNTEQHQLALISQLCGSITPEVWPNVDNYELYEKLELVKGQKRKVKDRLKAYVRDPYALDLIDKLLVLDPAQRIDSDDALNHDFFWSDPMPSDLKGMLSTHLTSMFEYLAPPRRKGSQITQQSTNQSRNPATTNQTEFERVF
UniProt O96017, whole entry: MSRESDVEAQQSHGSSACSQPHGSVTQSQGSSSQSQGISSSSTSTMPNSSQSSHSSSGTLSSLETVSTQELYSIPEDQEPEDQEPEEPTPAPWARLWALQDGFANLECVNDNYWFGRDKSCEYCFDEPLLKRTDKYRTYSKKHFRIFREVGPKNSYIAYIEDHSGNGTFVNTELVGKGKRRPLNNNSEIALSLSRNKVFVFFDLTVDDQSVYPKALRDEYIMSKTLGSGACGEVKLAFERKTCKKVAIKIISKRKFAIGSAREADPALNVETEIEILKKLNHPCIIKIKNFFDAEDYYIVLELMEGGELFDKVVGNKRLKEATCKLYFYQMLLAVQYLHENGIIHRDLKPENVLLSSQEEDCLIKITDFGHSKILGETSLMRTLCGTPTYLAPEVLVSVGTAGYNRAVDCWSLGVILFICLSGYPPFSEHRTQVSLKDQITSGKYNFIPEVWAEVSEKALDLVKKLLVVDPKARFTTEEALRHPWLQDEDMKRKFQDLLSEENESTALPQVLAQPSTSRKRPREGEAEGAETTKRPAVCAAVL
UniProt P07333, whole entry: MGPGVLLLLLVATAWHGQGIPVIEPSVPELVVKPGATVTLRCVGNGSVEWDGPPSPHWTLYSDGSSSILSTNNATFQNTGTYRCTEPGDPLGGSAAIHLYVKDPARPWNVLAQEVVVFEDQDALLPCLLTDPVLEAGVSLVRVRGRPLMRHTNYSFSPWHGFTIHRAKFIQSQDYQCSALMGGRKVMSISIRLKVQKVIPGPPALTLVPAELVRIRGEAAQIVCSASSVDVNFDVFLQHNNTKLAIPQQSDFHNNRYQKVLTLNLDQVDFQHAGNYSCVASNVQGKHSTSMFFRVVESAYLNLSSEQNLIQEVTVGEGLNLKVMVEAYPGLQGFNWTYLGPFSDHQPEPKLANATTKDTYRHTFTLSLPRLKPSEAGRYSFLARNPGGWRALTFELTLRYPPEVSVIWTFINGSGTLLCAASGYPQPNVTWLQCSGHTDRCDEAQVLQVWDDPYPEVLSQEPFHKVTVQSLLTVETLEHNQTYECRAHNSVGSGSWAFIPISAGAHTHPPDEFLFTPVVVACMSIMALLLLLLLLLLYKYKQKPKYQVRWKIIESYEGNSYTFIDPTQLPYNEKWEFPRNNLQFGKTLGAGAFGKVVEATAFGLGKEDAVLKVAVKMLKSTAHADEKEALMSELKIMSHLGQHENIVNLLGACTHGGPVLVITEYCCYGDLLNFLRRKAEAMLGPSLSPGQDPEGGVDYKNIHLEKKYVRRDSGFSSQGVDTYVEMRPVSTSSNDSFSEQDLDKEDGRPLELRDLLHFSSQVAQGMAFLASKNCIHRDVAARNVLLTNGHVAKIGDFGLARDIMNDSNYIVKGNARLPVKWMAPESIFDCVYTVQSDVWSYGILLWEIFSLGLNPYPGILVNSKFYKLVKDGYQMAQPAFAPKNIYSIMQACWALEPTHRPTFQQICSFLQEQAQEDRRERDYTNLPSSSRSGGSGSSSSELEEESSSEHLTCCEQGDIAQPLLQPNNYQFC
UniProt P41240: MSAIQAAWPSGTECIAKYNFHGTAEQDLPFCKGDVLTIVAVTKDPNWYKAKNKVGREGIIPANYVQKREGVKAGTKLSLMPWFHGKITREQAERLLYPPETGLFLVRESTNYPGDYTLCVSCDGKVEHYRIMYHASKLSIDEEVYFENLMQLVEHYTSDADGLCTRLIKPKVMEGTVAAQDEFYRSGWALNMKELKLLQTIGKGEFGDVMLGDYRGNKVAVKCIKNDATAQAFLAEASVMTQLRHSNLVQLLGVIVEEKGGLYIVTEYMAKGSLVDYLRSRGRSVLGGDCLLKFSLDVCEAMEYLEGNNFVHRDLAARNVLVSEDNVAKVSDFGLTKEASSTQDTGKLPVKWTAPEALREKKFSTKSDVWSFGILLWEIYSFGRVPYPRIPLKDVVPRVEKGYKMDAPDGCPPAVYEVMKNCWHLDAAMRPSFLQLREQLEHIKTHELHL
UniProt P48729: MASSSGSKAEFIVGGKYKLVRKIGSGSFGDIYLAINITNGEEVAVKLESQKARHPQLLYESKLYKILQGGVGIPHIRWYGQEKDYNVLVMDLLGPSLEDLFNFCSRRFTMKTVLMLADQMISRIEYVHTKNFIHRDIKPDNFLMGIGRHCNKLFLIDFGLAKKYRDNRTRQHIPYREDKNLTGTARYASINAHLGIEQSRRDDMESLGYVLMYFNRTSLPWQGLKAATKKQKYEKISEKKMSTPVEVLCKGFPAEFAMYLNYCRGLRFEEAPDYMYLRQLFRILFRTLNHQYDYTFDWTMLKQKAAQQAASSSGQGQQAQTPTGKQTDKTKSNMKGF
UniProt P48730: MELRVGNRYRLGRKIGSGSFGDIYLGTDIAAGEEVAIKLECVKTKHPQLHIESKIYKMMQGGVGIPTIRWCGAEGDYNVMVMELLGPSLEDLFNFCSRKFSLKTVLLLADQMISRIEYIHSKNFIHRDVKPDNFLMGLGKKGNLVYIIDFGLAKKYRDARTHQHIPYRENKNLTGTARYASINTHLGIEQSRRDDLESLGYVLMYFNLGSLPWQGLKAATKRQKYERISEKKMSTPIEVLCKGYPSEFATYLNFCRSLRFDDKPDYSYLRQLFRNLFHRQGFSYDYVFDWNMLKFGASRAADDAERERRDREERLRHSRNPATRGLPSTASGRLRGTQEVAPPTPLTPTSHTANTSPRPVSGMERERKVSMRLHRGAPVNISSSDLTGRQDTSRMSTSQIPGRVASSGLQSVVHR
UniProt Q08345: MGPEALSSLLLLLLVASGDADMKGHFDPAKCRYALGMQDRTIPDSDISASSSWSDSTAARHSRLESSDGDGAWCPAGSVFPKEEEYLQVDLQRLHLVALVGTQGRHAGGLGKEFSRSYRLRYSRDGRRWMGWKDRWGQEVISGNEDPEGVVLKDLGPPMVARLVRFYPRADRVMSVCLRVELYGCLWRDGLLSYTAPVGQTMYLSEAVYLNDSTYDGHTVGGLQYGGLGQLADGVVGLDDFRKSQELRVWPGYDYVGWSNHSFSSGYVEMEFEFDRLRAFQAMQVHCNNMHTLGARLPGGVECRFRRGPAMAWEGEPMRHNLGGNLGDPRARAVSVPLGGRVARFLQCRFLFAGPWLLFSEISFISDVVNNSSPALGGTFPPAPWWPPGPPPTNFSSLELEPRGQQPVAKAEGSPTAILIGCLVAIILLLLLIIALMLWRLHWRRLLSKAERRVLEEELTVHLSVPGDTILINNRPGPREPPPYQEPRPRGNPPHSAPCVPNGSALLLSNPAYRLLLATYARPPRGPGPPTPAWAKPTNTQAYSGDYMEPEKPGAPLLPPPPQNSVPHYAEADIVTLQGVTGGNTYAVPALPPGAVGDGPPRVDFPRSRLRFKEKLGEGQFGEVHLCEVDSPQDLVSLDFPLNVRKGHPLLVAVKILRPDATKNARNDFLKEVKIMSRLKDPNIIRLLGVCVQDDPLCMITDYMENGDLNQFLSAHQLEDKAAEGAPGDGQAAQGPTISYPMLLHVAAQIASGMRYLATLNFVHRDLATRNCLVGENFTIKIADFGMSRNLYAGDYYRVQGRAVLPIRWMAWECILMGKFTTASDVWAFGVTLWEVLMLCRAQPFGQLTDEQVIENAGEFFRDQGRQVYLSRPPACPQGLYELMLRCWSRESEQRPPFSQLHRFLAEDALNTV
UniProt Q9Y463, whole entry, looked up: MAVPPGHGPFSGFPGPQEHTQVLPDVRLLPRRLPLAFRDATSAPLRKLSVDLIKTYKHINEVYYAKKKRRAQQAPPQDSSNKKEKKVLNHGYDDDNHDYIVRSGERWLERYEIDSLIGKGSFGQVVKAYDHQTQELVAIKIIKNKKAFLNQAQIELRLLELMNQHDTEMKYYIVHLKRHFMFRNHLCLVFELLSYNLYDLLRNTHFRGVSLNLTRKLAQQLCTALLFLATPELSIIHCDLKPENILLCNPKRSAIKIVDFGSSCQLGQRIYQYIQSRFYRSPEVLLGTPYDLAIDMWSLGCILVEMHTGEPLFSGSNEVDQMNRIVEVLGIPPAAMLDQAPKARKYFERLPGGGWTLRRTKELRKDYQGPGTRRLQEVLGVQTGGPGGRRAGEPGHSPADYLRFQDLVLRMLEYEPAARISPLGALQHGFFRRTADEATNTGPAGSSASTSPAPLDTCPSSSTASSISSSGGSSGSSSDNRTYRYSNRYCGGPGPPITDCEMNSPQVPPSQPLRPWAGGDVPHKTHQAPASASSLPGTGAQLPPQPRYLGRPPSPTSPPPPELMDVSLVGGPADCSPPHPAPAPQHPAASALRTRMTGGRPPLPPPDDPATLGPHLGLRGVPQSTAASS
UniProt Q92630: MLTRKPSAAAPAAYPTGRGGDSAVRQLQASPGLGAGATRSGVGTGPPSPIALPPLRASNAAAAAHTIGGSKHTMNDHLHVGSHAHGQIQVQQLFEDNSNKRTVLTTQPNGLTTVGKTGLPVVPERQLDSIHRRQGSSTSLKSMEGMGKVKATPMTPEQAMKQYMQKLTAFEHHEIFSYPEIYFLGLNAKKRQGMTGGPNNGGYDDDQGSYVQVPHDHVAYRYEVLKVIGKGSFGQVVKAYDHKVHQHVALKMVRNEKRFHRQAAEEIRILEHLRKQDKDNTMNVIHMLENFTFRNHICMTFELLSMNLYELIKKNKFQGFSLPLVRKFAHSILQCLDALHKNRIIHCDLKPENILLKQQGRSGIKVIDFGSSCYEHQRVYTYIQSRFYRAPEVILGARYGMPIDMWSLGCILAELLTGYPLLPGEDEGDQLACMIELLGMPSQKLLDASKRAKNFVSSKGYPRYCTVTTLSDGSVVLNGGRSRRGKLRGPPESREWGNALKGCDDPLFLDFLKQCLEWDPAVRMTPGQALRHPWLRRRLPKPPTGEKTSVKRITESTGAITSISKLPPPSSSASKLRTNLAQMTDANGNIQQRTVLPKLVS
UniProt P29317, whole entry: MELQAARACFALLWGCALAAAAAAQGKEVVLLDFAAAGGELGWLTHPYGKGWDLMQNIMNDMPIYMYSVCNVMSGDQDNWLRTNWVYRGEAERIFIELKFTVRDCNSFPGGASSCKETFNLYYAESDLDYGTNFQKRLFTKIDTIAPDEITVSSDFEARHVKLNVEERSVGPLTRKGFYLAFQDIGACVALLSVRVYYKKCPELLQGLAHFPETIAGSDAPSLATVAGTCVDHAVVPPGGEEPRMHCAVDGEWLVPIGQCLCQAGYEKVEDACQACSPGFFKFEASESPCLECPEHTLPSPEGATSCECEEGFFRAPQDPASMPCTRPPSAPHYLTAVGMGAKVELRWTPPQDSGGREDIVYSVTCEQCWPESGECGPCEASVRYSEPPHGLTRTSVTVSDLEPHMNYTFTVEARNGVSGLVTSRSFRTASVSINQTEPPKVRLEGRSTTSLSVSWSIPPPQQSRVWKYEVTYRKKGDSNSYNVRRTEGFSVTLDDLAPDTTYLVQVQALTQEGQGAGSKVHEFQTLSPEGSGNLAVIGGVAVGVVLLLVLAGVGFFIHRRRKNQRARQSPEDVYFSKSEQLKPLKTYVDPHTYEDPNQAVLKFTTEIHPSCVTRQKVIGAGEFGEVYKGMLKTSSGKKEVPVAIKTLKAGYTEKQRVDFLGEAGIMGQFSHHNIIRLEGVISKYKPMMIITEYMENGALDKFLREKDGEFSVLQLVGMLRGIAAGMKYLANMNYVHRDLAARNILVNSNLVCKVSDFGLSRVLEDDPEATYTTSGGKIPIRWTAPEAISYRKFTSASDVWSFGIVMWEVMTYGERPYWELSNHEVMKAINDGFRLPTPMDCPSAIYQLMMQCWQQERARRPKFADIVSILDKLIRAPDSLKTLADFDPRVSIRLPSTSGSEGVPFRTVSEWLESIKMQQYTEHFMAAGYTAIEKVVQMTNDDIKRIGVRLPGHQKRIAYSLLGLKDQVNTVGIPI

How the values were obtained:
Assay in all cases: kinase-Nluc reporter destabilization hit call (1 = scored as downregulated) (binary); higher = compound decreases kinase abundance
Settings in all cases: K562; 2-18 h
[1] = biological target: CDK7 (UniProt P50613)
[2] = biological target: CDK9 (UniProt P50750)
[3] = biological target: CHEK2 (UniProt O96017)
[4] = biological target: CSF1R (UniProt P07333)
[5] = biological target: CSK (UniProt P41240)
[6] = biological target: CSNK1A1 (UniProt P48729)
[7] = biological target: CSNK1D (UniProt P48730)
[8] = biological target: DDR1 (UniProt Q08345)
[9] = biological target: DYRK1B (UniProt Q9Y463)
[10] = biological target: DYRK2 (UniProt Q92630)
[11] = biological target: EGFR (UniProt P00533)
[12] = biological target: EGFR_G719S (UniProt P00533)
[13] = biological target: EGFR_G719S_T790M (UniProt P00533)
[14] = biological target: EGFR_L718V (UniProt P00533)
[15] = biological target: EGFR_L858R (UniProt P00533)
[16] = biological target: EGFR_L861Q (UniProt P00533)
[17] = biological target: EGFR_T790M (UniProt P00533)
[18] = biological target: EPHA2 (UniProt P29317)
[19] = biological target: ERBB3 (UniProt P21860)
[20] = biological target: ERBB4_R711C (clone: ERBB4_mut) (UniProt Q15303)

Measured: kinase-Nluc reporter destabilization hit call

c1cc(-c2cnn3cc(-c4ccc(N5CCNCC5)cc4)cnc23)c2cccnc2c1 (2.5 µM)
active: [8] 1
inactive: [1] 0 | [2] 0 | [3] 0 | [4] 0 | [5] 0 | [6] 0 | [7] 0 | [9] 0 | [10] 0 | [11] 0 | [12] 0 | [13] 0 | [14] 0 | [15] 0 | [16] 0 | [17] 0 | [18] 0 | [19] 0 | [20] 0

C=CC(=O)N1CCC[C@@H](n2nc(C(=O)Nc3ccc(CC(=O)N(C)C)c(C)c3C)c3c(N)ncnc32)C1 (10 µM)
inactive: [1] 0 | [2] 0 | [3] 0 | [4] 0 | [5] 0 | [6] 0 | [7] 0 | [8] 0 | [9] 0 | [10] 0 | [11] 0 | [12] 0 | [13] 0 | [14] 0 | [15] 0 | [16] 0 | [17] 0 | [18] 0 | [19] 0 | [20] 0

COc1c(O)cc2oc3cc(O)c(CC=C(C)C)c(O)c3c(=O)c2c1CCC(C)(C)O [Garcinone D] (2.5 µM)
inactive: [1] 0 | [2] 0 | [3] 0 | [4] 0 | [5] 0 | [6] 0 | [7] 0 | [8] 0 | [9] 0 | [10] 0 | [11] 0 | [12] 0 | [13] 0 | [14] 0 | [15] 0 | [16] 0 | [17] 0 | [18] 0 | [19] 0 | [20] 0

O=c1[nH]ccc2cc(OC3CCNCC3)ccc12 (10 µM)
inactive: [1] 0 | [2] 0 | [3] 0 | [4] 0 | [5] 0 | [6] 0 | [7] 0 | [8] 0 | [9] 0 | [10] 0 | [11] 0 | [12] 0 | [13] 0 | [14] 0 | [15] 0 | [16] 0 | [17] 0 | [18] 0 | [19] 0 | [20] 0

Cn1cc(-c2ccc(F)c(C(F)(F)F)c2)nc1C1CCN(c2ncnc3[nH]ncc23)CC1 (10 µM)
inactive: [1] 0 | [2] 0 | [3] 0 | [4] 0 | [5] 0 | [6] 0 | [7] 0 | [8] 0 | [9] 0 | [10] 0 | [11] 0 | [12] 0 | [13] 0 | [14] 0 | [15] 0 | [16] 0 | [17] 0 | [18] 0 | [19] 0 | [20] 0

An excerpt from above in order of SMILES length, smallest number first:
O=c1[nH]ccc2cc(OC3CCNCC3)ccc12 (10 µM)
inactive: [1] 0 | [2] 0 | [3] 0 | [4] 0 | [5] 0 | [6] 0 | [7] 0 | [8] 0 | [9] 0 | [10] 0 | [11] 0 | [12] 0 | [13] 0 | [14] 0 | [15] 0 | [16] 0 | [17] 0 | [18] 0 | [19] 0 | [20] 0

c1cc(-c2cnn3cc(-c4ccc(N5CCNCC5)cc4)cnc23)c2cccnc2c1 (2.5 µM)
active: [8] 1
inactive: [1] 0 | [2] 0 | [3] 0 | [4] 0 | [5] 0 | [6] 0 | [7] 0 | [9] 0 | [10] 0 | [11] 0 | [12] 0 | [13] 0 | [14] 0 | [15] 0 | [16] 0 | [17] 0 | [18] 0 | [19] 0 | [20] 0

C=CC(=O)N1CCC[C@@H](n2nc(C(=O)Nc3ccc(CC(=O)N(C)C)c(C)c3C)c3c(N)ncnc32)C1 (10 µM)
inactive: [1] 0 | [2] 0 | [3] 0 | [4] 0 | [5] 0 | [6] 0 | [7] 0 | [8] 0 | [9] 0 | [10] 0 | [11] 0 | [12] 0 | [13] 0 | [14] 0 | [15] 0 | [16] 0 | [17] 0 | [18] 0 | [19] 0 | [20] 0

Further entries follow.

NCCCCCCNS(=O)(=O)c1cccc2c(Cl)cccc12 [W-7 (hydrochloride)] (10 µM)
inactive: [1] 0 | [2] 0 | [3] 0 | [4] 0 | [5] 0 | [6] 0 | [7] 0 | [8] 0 | [9] 0 | [10] 0 | [11] 0 | [12] 0 | [13] 0 | [14] 0 | [15] 0 | [16] 0 | [17] 0 | [18] 0 | [19] 0 | [20] 0

CCCCOc1ccc(CC/C=C2\SC(=O)N(CCN)C2=O)cc1 [K145 (hydrochloride)] (2.5 µM)
inactive: [1] 0 | [2] 0 | [3] 0 | [4] 0 | [5] 0 | [6] 0 | [7] 0 | [8] 0 | [9] 0 | [10] 0 | [11] 0 | [12] 0 | [13] 0 | [14] 0 | [15] 0 | [16] 0 | [17] 0 | [18] 0 | [19] 0 | [20] 0

COc1ccc(CCNc2ncc3c(=O)n(-c4cccc(F)c4)c(=O)[nH]c3n2)cc1OC (2 µM)
inactive: [1] 0 | [2] 0 | [3] 0 | [4] 0 | [5] 0 | [6] 0 | [7] 0 | [8] 0 | [9] 0 | [10] 0 | [11] 0 | [12] 0 | [13] 0 | [14] 0 | [15] 0 | [16] 0 | [17] 0 | [18] 0 | [19] 0 | [20] 0

Nc1n[nH]c2cc(-c3ccc(=O)n(Cc4cccc(Cl)c4)c3)ccc12 (10 µM)
inactive: [1] 0 | [2] 0 | [3] 0 | [4] 0 | [5] 0 | [6] 0 | [7] 0 | [8] 0 | [9] 0 | [10] 0 | [11] 0 | [12] 0 | [13] 0 | [14] 0 | [15] 0 | [16] 0 | [17] 0 | [18] 0 | [19] 0 | [20] 0

COc1ccc2c(Oc3ccc(NC(=O)c4c(C)n(CC(C)(C)O)n(-c5ccccc5)c4=O)cc3F)ccnc2c1 (2.5 µM)
inactive: [1] 0 | [2] 0 | [3] 0 | [4] 0 | [5] 0 | [6] 0 | [7] 0 | [8] 0 | [9] 0 | [10] 0 | [11] 0 | [12] 0 | [13] 0 | [14] 0 | [15] 0 | [16] 0 | [17] 0 | [18] 0 | [19] 0 | [20] 0

CCN1C(=O)CNc2ncc(-c3ccc(-c4nc[nH]n4)nc3C)nc21 [CC-115 (hydrochloride)] (2.5 µM)
inactive: [2] 0 | [3] 0 | [4] 0 | [5] 0 | [6] 0 | [7] 0 | [8] 0 | [9] 0 | [10] 0 | [11] 0 | [12] 0 | [13] 0 | [14] 0 | [15] 0 | [16] 0 | [17] 0 | [18] 0 | [19] 0 | [20] 0
active: [1] 1

Nc1nc2cc(-c3ccc4ncc(C(=O)N5CCOCC5)n4c3)ccc2o1 [Serabelisib] (10 µM)
inactive: [1] 0 | [2] 0 | [3] 0 | [4] 0 | [5] 0 | [6] 0 | [7] 0 | [8] 0 | [9] 0 | [10] 0 | [11] 0 | [12] 0 | [13] 0 | [14] 0 | [15] 0 | [16] 0 | [17] 0 | [18] 0 | [19] 0 | [20] 0

CC(C)(C)Cn1c(N)nc2ccc(-c3[nH]c(C(C)(C)C)nc3-c3ccc(F)cc3)nc21 [Ralimetinib dimesylate] (2.5 µM)
inactive: [1] 0 | [2] 0 | [3] 0 | [4] 0 | [5] 0 | [6] 0 | [7] 0 | [8] 0 | [9] 0 | [10] 0 | [11] 0 | [12] 0 | [13] 0 | [14] 0 | [15] 0 | [16] 0 | [17] 0 | [18] 0 | [19] 0 | [20] 0

Cc1ccc(-c2nn(C(C)(C)CNC(=O)c3ccncc3)c3ncnc(N)c23)cc1 (2.5 µM)
inactive: [1] 0 | [2] 0 | [3] 0 | [4] 0 | [5] 0 | [6] 0 | [7] 0 | [8] 0 | [9] 0 | [10] 0 | [11] 0 | [12] 0 | [13] 0 | [14] 0 | [15] 0 | [16] 0 | [17] 0 | [18] 0 | [19] 0 | [20] 0

CC[C@@H]1[C@H](F)C(=O)N[C@@H]1COc1nccc2cc(C(N)=O)c(OC)cc12 (10 µM)
inactive: [1] 0 | [2] 0 | [3] 0 | [4] 0 | [5] 0 | [6] 0 | [7] 0 | [8] 0 | [9] 0 | [10] 0 | [11] 0 | [12] 0 | [13] 0 | [14] 0 | [15] 0 | [16] 0 | [17] 0 | [18] 0 | [19] 0 | [20] 0

COc1cc(N2CCC(N(C)C)CC2)ccc1Nc1ncc(Cl)c(Nc2ccccc2P(C)(C)=O)n1 (2.5 µM)
inactive: [1] 0 | [2] 0 | [3] 0 | [4] 0 | [5] 0 | [6] 0 | [7] 0 | [8] 0 | [9] 0 | [10] 0 | [11] 0 | [12] 0 | [13] 0 | [14] 0 | [15] 0 | [16] 0 | [17] 0 | [18] 0 | [19] 0 | [20] 0

CC(C)(O)[C@@H]1CC[C@](C)([C@H]2[C@@H](O)C[C@@]3(C)[C@@H]4C[C@H](O[C@@H]5O[C@H](CO)[C@@H](O)[C@H](O)[C@H]5O)[C@H]5C(C)(C)[C@@H](O[C@@H]6OC[C@@H](O)[C@H](O)[C@H]6O[C@@H]6O[C@H](CO)[C@@H](O)[C@H](O)[C@H]6O)CC[C@@]56C[C@@]46CC[C@]23C)O1 [Astragaloside VI] (10 µM)
inactive: [1] 0 | [2] 0 | [3] 0 | [4] 0 | [5] 0 | [6] 0 | [7] 0 | [8] 0 | [9] 0 | [10] 0 | [11] 0 | [12] 0 | [13] 0 | [14] 0 | [15] 0 | [16] 0 | [17] 0 | [18] 0 | [19] 0 | [20] 0

c1ccc(-c2oc3ncnc(NC[C@@H]4CCCO4)c3c2-c2ccccc2)cc1 (2.5 µM)
inactive: [1] 0 | [2] 0 | [3] 0 | [4] 0 | [5] 0 | [6] 0 | [7] 0 | [8] 0 | [9] 0 | [10] 0 | [11] 0 | [12] 0 | [13] 0 | [14] 0 | [15] 0 | [16] 0 | [17] 0 | [18] 0 | [19] 0 | [20] 0
